# PubChem BioAssay AID1224827 – NIAID, 2016
# Purpose: 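Identify regulators of the macrophage TNF-alpha response to bacterial LPS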 (follow-up of hits)
# Cells: RAW264.7 G9 mouse macrophage reporter clone
# Reagent: single siRNA against mouse genes, 100 nM siRNA
# Time to read-out: siRNA for 2 days, then LPS about 16 h
# Conditions: bacterial lipopolysaccharide (LPS), 10 ng/ml, cells fixed after overnight (about 16 h) stimulation
# Measurement: 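Imaged nuclear TNF reporter intensity, background removed, scaled per plate and to non-targeting control wells, as z-scores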
# Direction: TNF reporter z-score, mean: higher = stronger Tnf promoter reporter signal
# Rule for the call: 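Active siRNA: replicate-mean z-score of 2 or more, or -2 or less; no calls for control wells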
# This is a random part of about 3,800 deposited reagents. About 2,200 of all reagents (57%) count as active. 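Active means a strong reporter change in either direction; calls are per siRNA, not per gene; qiagen siRNAs gave weaker effects.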 Reagents against one gene are numbered here. Further read-outs or replicates are left out here. No sequences are given here.
gene knocked down,reagent,"TNF reporter z-score, mean",outcome
Cpq,1,8.13,active
Cpq,2,1.78,inactive
Cpq,3,-2.93,active
Cpq,4,4.49,active
Cpq,5,3.59,active
Cpq,6,1.61,inactive
Eif4ebp1,1,6.09,active
Eif4ebp1,2,-1.47,inactive
Eif4ebp1,3,-3.6,active
Eif4ebp1,4,0.41,inactive
Eif4ebp1,5,-1.5,inactive
Eif4ebp1,6,-3.39,active
Opn4,1,-2.31,active
Opn4,2,-3.19,active
Opn4,3,-4.99,active
Opn4,4,10.4,active
Opn4,5,1.72,inactive
Opn4,6,0.177,inactive
Hspa12a,1,1.3,inactive
Hspa12a,2,0.733,inactive
Hspa12a,3,-4.84,active
Hspa12a,4,1.66,inactive
Hspa12a,5,0.401,inactive
Hspa12a,6,-1.32,inactive
Csf1,1,0.896,inactive
Csf1,2,-3.95,active
Csf1,3,-4.57,active
Csf1,4,0.614,inactive
Csf1,5,0.335,inactive
Csf1,6,0.661,inactive
Or2y1g,1,3.51,active
Or2y1g,2,-1.97,inactive
Or2y1g,3,-2.07,active
Or2y1g,4,-0.505,inactive
Or2y1g,5,-0.53,inactive
Or2y1g,6,-2.51,active

The list goes on (7 carried over from the part before).
gene knocked down,reagent,"TNF reporter z-score, mean",outcome
Csf1,6,0.661,inactive
Or2y1g,1,3.51,active
Or2y1g,2,-1.97,inactive
Or2y1g,3,-2.07,active
Or2y1g,4,-0.505,inactive
Or2y1g,5,-0.53,inactive
Or2y1g,6,-2.51,active
6030452D12Rik,1,1.58,inactive
6030452D12Rik,2,-3.19,active
6030452D12Rik,3,-3.83,active
6030452D12Rik,4,3.01,active
6030452D12Rik,5,0.516,inactive
6030452D12Rik,6,-1.4,inactive
R3hdm2,1,1.46,inactive
R3hdm2,2,-3.34,active
R3hdm2,3,-3.94,active
R3hdm2,4,-1.78,inactive
R3hdm2,5,-2.66,active
R3hdm2,6,-3.53,active
Or4g17,1,-2.94,active
Or4g17,2,-3.33,active
Or4g17,3,-4.64,active
Or4g17,4,0.734,inactive
Or4g17,5,-0.769,inactive
Or4g17,6,-1.46,inactive
Pon2,1,0.376,inactive
Pon2,2,-4.49,active
Pon2,3,-4.95,active
Pon2,4,-0.399,inactive
Pon2,5,-0.613,inactive
Pon2,6,-3.7,active
